For 1 substance, binding results are on record in paper PMC9307593.

Assay [1] concerns the target T1, Flag-tagged NUPR1 (wild type) (UniProt O60356).
T1 sequence: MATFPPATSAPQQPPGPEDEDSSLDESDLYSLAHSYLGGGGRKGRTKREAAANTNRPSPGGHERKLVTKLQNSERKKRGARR
Kind of assay: affinity purification with mass spectrometry; MiaPaCa-2 cells expressing Flag-NUPR1 or GFP-NUPR1, normal conditions or 24 h glucose starvation; lysates on anti-Flag M2 beads or GFP-Trap agarose; eluted proteins identified by LC-MS/MS.

The target in a further assay is T2, GFP-tagged NUPR1 (UniProt O60356).
T2 sequence: T1 sequence
The description is as above.

Results are given in words; binding and its absence hold for the method and conditions named. Binding seen in cells or lysates may run through a third protein. Here binding means that the protein was enriched with, or labelled near, the bait; the list need not be complete. Where a sequence is shown, tags or fusion partners need not be part of it.

Turning to “PARP1 (endogenous, MiaPaCa-2 cells) (human (endogenous in MiaPaCa-2)) (enzyme)”, the binding entry (in assay [1]; with GFP-tagged NUPR1) was “binds” in each case.
